Assay results: patent publication US20020146824
Where cells or extracts were used, other partners may take part. Negatives hold for the conditions tested. Tags and fusion partners may be left off the protein sequences shown.

Tested on: T1, PABF C-terminal fragment (lambda900 cDNA clone) (Nicotiana tabacum)
T1 sequence: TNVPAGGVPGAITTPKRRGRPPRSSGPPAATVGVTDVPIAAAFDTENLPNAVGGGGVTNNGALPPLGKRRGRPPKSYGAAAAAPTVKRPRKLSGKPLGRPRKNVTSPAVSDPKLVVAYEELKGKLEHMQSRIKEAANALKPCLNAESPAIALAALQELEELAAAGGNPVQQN
Assay: binding assay
Conditions: protein in a lysate after overexpression

Sequence	binding result (plaque filter binding)	binding result (filter binding, indistinguishable from PA)
TGCAGGTGTTGCACGTGATACTCACCTACCCTGCA (double strand) [G-box]	no binding	
AATTAATTAATTAATTAATTAATTAATTAATTAATTAATTAATTAATTAATT (double strand) [PAs (AATT)13]		binds
TATATATATATATATATATATATATATATACCACGT (double strand)	no binding	
CATAAGGATTAGGAATTTAATTTCGTAG (double strand) [PF]	no binding	
CTTGTCATTATTTCTCCACCACCCCCTTCACTTCCC (double strand)	no binding	
CGACTCACCTACCTGACATGCTACGCAGCG (double strand) [H-box]	no binding	
